According to PubChem BioAssay AID1117319 (Southern Research Institute, 2015):
Hit rate of the full screen: of about 260,000 compounds, about 1,500 (0.58%) were called active. Inconclusive means that the source gave no clear call. Such entries were picked first, then a sample of the others.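 How the source made its calls: active means inhibition above a set limit at one or more doses, reproduced on every date tested; inconclusive means results disagree between test dates, or hit never tested in dose response; inactive means the rest.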

By UniProt entry, the sequences of proteins in these tests, tags left out. Where a name states a change or a piece, a line headed by the entry shows the natural chain unless it says otherwise.
UniProt P69720: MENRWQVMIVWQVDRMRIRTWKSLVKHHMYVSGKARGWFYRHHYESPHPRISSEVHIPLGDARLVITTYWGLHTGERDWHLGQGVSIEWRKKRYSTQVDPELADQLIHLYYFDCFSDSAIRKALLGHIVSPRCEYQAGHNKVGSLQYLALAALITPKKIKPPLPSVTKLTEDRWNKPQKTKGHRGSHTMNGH
UniProt P69721: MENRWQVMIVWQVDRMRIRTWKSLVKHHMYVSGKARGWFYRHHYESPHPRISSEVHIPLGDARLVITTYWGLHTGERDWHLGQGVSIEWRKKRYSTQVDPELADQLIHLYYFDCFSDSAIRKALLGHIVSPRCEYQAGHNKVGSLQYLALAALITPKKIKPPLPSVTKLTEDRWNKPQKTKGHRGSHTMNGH
UniProt P69722: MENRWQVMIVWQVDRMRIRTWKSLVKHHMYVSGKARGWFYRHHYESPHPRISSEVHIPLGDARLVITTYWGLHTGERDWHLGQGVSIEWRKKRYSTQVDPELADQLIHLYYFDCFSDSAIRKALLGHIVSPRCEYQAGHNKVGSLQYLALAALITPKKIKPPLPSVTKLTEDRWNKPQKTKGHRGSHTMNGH
UniProt P69723: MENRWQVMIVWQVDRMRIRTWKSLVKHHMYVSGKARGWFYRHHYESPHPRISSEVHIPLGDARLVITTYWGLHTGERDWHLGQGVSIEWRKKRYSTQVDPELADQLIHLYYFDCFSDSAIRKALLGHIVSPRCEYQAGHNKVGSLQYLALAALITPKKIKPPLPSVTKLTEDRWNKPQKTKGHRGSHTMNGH
UniProt Q9HC16: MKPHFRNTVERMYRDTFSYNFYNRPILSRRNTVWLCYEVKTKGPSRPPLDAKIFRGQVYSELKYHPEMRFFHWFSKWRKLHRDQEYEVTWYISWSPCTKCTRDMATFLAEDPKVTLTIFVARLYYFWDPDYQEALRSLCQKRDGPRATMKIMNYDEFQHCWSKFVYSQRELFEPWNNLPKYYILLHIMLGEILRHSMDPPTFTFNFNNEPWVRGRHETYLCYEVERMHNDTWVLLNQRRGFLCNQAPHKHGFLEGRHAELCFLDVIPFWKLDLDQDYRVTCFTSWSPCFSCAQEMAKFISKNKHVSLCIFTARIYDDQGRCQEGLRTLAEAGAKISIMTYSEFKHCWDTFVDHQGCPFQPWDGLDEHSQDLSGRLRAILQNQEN

target: Virion infectivity factor (Human immunodeficiency virus type 1 group M subtype B (isolate BH10)) + Virion infectivity factor (Human immunodeficiency virus type 1 group M subtype B (isolate BRU/LAI)) + Virion infectivity factor (Human immunodeficiency virus type 1 group M subtype B (isolate PCV12)) + Virion infectivity factor (Human immunodeficiency virus type 1 group M subtype B (isolate HXB2)) + DNA dC->dU-editing enzyme APOBEC-3G (Homo sapiens) (UniProt P69720+P69721+P69722+P69723+Q9HC16); test: inhibitors of Vif binding to APOBEC3G peptide, primary screen, biochemical, TR-FRET, GST-Vif 1-94, biotin-A3G peptide, dose response retest (AID 1117319); conditions: stronger effect = higher value;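 further: Vif residues 1-94 fused to GST binding biotinylated APOBEC3G peptide 110-148; 0% = full assay without inhibitor and 100% = GST in place of GST-Vif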

Structure (SMILES) | inhibition
CCC[n+]1c(C)sc2c3c(ccc21)CCCC3 | inconclusive: 40.9%
CCOc1ccc(NC(=O)CSc2nnc(Cn3c(=O)sc4ccccc43)n2C)cc1 | inconclusive: 38.3%
Cc1c(Cl)cnc(NC(=O)COC(=O)/C=C/c2ccco2)c1Cl | inactive: 19.7%
CCC(=O)Nc1ccc(Cl)c(NC(=S)NC(=O)COc2ccc(Cl)cc2)c1 | inconclusive: 45.4%
O=C(NNC(=O)c1ccncc1)Nc1ccc([N+](=O)[O-])cc1 | inconclusive: 38.3%
COc1cccc2c(C)c(C(=O)O)[nH]c12 | inconclusive: 52%
Cc1cc(C)c2nc(-c3ccccn3)cc(C(=O)NCc3ccco3)c2c1 | inconclusive: 62.6%
Cc1c(/C=N/NC(N)=O)c2ccccn2c1C(=O)c1ccncc1 | inconclusive: 33.3%
COCCN(CCOC)C(=O)c1cc2sc3ccccc3c2s1 | inconclusive: 50.7%
CC1CCN(C(=O)CSc2nc3c(c(=O)n(C)c(=O)n3C)n2C)CC1 | inconclusive: 34.9%
O=S(=O)(Nc1cc(C(F)(F)F)ccc1N1CCOCC1)c1ccccc1 | inactive: 2.04%
CN1CCN(S(=O)(=O)c2ccc3c(c2)NC(=O)CS3)CC1 | inconclusive: 55.7%
COc1cccc(-c2nc(NC(C)(C)C)c3ccccc3n2)c1O | inconclusive: 52.5%
Cc1ccc([N+](=O)[O-])c(NC2OC(CO)C(O)C2O)c1 (stereo not given) | inconclusive: 60.9%
CC1=NN(c2cccc(F)c2)C(=O)/C1=C/c1ccc(N(C)C)cc1 | inactive: 7.52%
O=C(NCc1ccccc1)c1ccc(Br)o1 | inconclusive: 34.8%
CCOc1ccccc1OCC(=O)NNC(=O)Cn1cnc2c1c(=O)n(C)c(=O)n2C | inconclusive: 34.9%
Cc1nc(-c2ccncc2)sc1C(=O)Nc1ccc(Br)cc1 | inconclusive: 42.3%
CCOC(=O)C(=O)NN=C(c1ccccc1)c1ccccc1 | inconclusive: 34.1%
O=C(Cn1c(=O)c2ccccc2n(CC(=O)N2CCCCC2)c1=O)N1CCCCC1 | inconclusive: 64.9%
Cc1cccn2c(=O)c(C=O)c(N3CCCCC3)nc12 | inconclusive: 39.2%
Cc1csc(=O)n1CCC(=O)OCC(=O)NNC(=O)c1ccc(Br)cc1 | inconclusive: 38.2%
O=C(CSc1ccc(Cl)cc1)NNC(=O)c1ccco1 | inactive: 2.28%

Structure (SMILES) | inhibition
Cc1ccc(C(=O)Nc2nc(-c3ccco3)c(-c3ccco3)s2)o1 | inactive: 23.7%
NC(=O)CN1C(=O)/C(=c2\sc3nc(=O)c(Cc4ccccc4)nn3c2=O)c2ccccc21 | inactive: -13.2%
COc1cc(/C=N/NC(=O)c2c(C)nnn2-c2nonc2N)ccc1O | inconclusive: 45.1%
Cc1cccc(OCC(=O)Nc2ccc3c(c2)nc(CCN2CCN(C)CC2)n3C)c1 | inconclusive: 52%
Cc1cccc(OCCNc2ccc([N+](=O)[O-])cn2)c1 | inconclusive: 59.3%
O=C(NC(=O)c1cccc(F)c1)Nc1nc(-c2ccc(F)cc2)cc(C(F)(F)F)n1 | inactive: 0.6%
CCOC(=O)C(/C=C(\C#N)C(=O)OCC)=C(/N)N1CCN(c2c(C)cccc2C)CC1 | inconclusive: 44.5%
CCOC(=O)c1cnc2ccc(Cl)cc2c1N1CCN(C)CC1 | inconclusive: 42.8%
CCOC(=O)CSc1nnc(CNC(=O)Cc2ccccc2)n1C | inconclusive: 42%
Cc1cccc(N(C)S(=O)(=O)c2ccc3[nH]cc(C(=O)N4CCOCC4)c(=O)c3c2)c1 | inconclusive: 54.9%
Cc1ccc(-c2csc(N(C)C(=O)c3c(C)nn(-c4ccccc4)c3Cl)n2)cc1 | inconclusive: 49.5%
CCCCN(C(=O)c1cc2ccccc2o1)c1c(N)n(CCC)c(=O)[nH]c1=O | inconclusive: 33.8%
Cc1ccc(S(=O)(=O)N2CCCN(S(=O)(=O)c3ccc(C)cc3)CC2)cc1 | inconclusive: 49%
O=C(O)c1ccc2c(c1Sc1ccccc1)C(=O)c1ccccc1C2=O | inconclusive: 60.6%
CCOC(=O)c1nc2sc3c(c2c(=O)[nH]1)CCCC3 | inconclusive: 34.7%
O=C(CN1C(=O)NC2(CCCC2)C1=O)N1CCN(C(=O)c2ccco2)CC1 | inconclusive: 56.2%
Cc1cc(C)nc(Nc2ccc(N3CCOCC3)cc2)n1 | inconclusive: 42.1%
O=C1c2ccccc2C(=O)N1CSc1nnc2c3ccccc3n(CCc3ccccc3)c2n1 | inconclusive: 34.2%
C=CCc1cc(Cl)ccc1OCCNCCN1CCOCC1 | inconclusive: 40.1%
COc1ccc(-n2nc3c(c2NC(=O)c2ccc(Br)o2)CS(=O)(=O)C3)cc1 | inconclusive: 44.7%
COc1ccc(N2Cc3ccccc3C2)cc1Cl | inconclusive: 34.6%
OC(COc1ccc(Cl)cc1)CN1CCN(c2cccc(Cl)c2)CC1 (stereo not given) | inconclusive: 33.9%
C#CCOCCOCCOCCNc1nc(N2CCN(C(=O)[C@H](CCC(=O)O)n3cc(C(N)Cc4ccc(O)cc4)nn3)CC2)nc(N2CCN(C(=O)[C@H](CCC(=O)O)n3cc(C(N)CC(C)C)nn3)CC2)n1 (stereo not given in full) | inconclusive: 48.9%

Structure (SMILES) | inhibition
O=C(CSc1nc2ccccc2[nH]1)Nc1ccc2c(c1)CCC2 | inconclusive: 38.9%
Cc1ccc(C)c(NC2=CC(=O)CC(C)(C)C2)c1C#N | inconclusive: 46.6%
Cn1c(SCc2cc(=O)[nH]c3ccccc23)nnc1-c1ccco1 | inconclusive: 39.9%
O=C(OC1CCOC1=O)c1cccc(S(=O)(=O)N2CCc3ccccc3C2)c1 (stereo not given) | inconclusive: 49.7%
N#Cc1nc(-c2ccco2)oc1N1CCc2ccccc2C1 | inconclusive: 38.3%
Cc1ccc(S(=O)(=O)NCC(=O)OCN2C(=O)c3ccccc3C2=O)cc1 | inconclusive: 39.8%
Cc1ccc2cc(/C=C/C(=O)c3ccco3)c(Cl)nc2c1 | inconclusive: 44.2%
COc1ccc(CC(=O)Nc2nc(C)cs2)cc1 | inconclusive: 38.5%
CCOC(=O)Cn1nc(C)c2ccccc2c1=O | inconclusive: 34.1%
CC(=O)Nc1ccccc1OCC(=O)NCCC1=CCCCC1 | inactive: -8.53%
NNC(=O)C1CC(O)CN1S(=O)(=O)c1ccc2ccccc2c1 (stereo not given) | inconclusive: 52.2%
Cc1ccc(N2C(=O)CC(Nc3cccc4ccccc34)C2=O)cc1 (stereo not given) | inconclusive: 49.9%
N#CC1=C(N)n2c(s/c(=C\c3ccco3)c2=O)=C(C#N)C1c1ccco1 (stereo not given) | inconclusive: 47.1%
C/C(CC(=O)Nc1ccc(C)c(Cl)c1)=N\NC(=O)Cc1cnc(N)s1 | inconclusive: 37.1%
CCc1ccc(N(C(=O)CNC(=O)c2ccco2)C(C(=O)NCC2CCCO2)c2ccccc2)cc1 (stereo not given) | inactive: 6.06%
CCCCNC(=O)c1cc(-c2ccc(F)cc2)on1 | inconclusive: 37.1%
CC1Cc2cc(/C(O)=C3\C(=O)C(=O)N(CCN4CCOCC4)C3c3ccccc3F)ccc2O1 (stereo not given) | inconclusive: 47.6%
CCOc1ccc(-n2cnc3c(=O)[nH]c(N)nc32)cc1 | inconclusive: 39.2%
CC(C)(CO)NCC#Cc1ccccc1 | inconclusive: 42.7%
CCCCN1C(=O)C(NC(C)=O)c2cc(Br)ccc21 (stereo not given) | inconclusive: 36.5%
Cc1ccc(N2CCN(CCCN3C(=O)C4CCCN4C3=O)CC2)cc1 (stereo not given) | inconclusive: 50%
Cc1ccc(C(=O)NC(=S)Nn2cnnc2)cc1 | inconclusive: 55.1%
COc1cc(/C=N/NC(=O)c2ccc(CN3C(=O)c4cccc5cccc3c45)cc2)cc(OC)c1O | inconclusive: 49.8%

Structure (SMILES) | inhibition
O=C(Nc1nc(-c2ccccc2)ns1)c1ccncc1 | inconclusive: 34.2%
CCC(c1nnnn1C1CCCC1)N1CCN(c2ccccc2F)CC1 (stereo not given) | inconclusive: 12.8%
O=C(NCc1ccncc1)Nc1ccccc1 | inconclusive: 35.3%
COc1ccccc1C1CCN(C(=O)c2ccccc2)CC1 | inactive: 6.08%
COC(=O)C1CCN(CC(N)=O)CC1 | inconclusive: 60.2%
COc1ccc(CNC(=O)N[C@H](C(=O)O)C(C)C)cc1OC | inconclusive: 47.7%
Nc1ncc(N=Nc2cc(C(=O)O)ccc2Cl)s1 | inconclusive: 45.6%
CCOC(=O)C1/C(=N\O)CC(C)(O)C(C(=O)OCC)C1c1ccc(N(C)C)cc1 (stereo not given) | inconclusive: 33.9%
O=C(O)c1ccc(/C=N/NC(=O)c2ccc(Br)cc2)cc1 | inconclusive: 42.5%
COc1ccc(C2OC(=O)CC2C(=O)NCc2ccc(F)cc2)cc1OC (stereo not given) | inconclusive: 52.2%
COc1cc(/C=N/NC(N)=S)ccc1OCC(=O)Nc1ccc(C)c(C)c1 | inconclusive: 34.5%
O=C1CC(N2CCSCC2)C(=O)N1c1cccc(Cl)c1 (stereo not given) | inactive: 2.84%
CN(C)c1cc[n+](CC(=O)Nc2cc(C(F)(F)F)ccc2Cl)cc1 | inconclusive: 53.6%
O=C(Nc1cc(S(=O)(=O)N2CCOCC2)ccc1N1CCCC1)c1cc(=O)[nH]c2ccccc12 | inconclusive: 50.3%
CC(=O)NC(=S)Nc1ccccc1C(=O)Nc1ccccc1 | inconclusive: 62.7%
CCc1nn(-c2ccccc2)c2c1-c1cc(OC)c(OC)cc1C1(N2)C(=O)Nc2ccccc21 (stereo not given) | inconclusive: 51.3%
COc1ccc(/C=C/C(=O)c2ccccc2)c(OC)c1 | inactive: 2.19%
Cc1nc2nc(SCC(=O)c3ccc([N+](=O)[O-])cc3)[nH]c2cc1Br | inconclusive: 37.2%
CN1C(=O)C(=C2CCCCCC2)SC1=S | inactive: 4.5%
CSc1cccc(NC(=S)N2CCCN(Cc3ccccc3F)C2)c1 | inconclusive: 39.4%
CN(C)CCCNC(=O)C1CCNCC1 | inconclusive: 33.8%

Arranged by molecular weight (largest number first): part of the list above
Structure (SMILES) | inhibition
CCc1ccc(N(C(=O)CNC(=O)c2ccco2)C(C(=O)NCC2CCCO2)c2ccccc2)cc1 (stereo not given) | inactive: 6.06%
O=C(Nc1cc(S(=O)(=O)N2CCOCC2)ccc1N1CCCC1)c1cc(=O)[nH]c2ccccc12 | inconclusive: 50.3%
COc1cc(/C=N/NC(=O)c2ccc(CN3C(=O)c4cccc5cccc3c45)cc2)cc(OC)c1O | inconclusive: 49.8%
CC1Cc2cc(/C(O)=C3\C(=O)C(=O)N(CCN4CCOCC4)C3c3ccccc3F)ccc2O1 (stereo not given) | inconclusive: 47.6%
CCc1nn(-c2ccccc2)c2c1-c1cc(OC)c(OC)cc1C1(N2)C(=O)Nc2ccccc21 (stereo not given) | inconclusive: 51.3%
Cc1nc2nc(SCC(=O)c3ccc([N+](=O)[O-])cc3)[nH]c2cc1Br | inconclusive: 37.2%
CCOC(=O)C1/C(=N\O)CC(C)(O)C(C(=O)OCC)C1c1ccc(N(C)C)cc1 (stereo not given) | inconclusive: 33.9%
COc1cc(/C=N/NC(N)=S)ccc1OCC(=O)Nc1ccc(C)c(C)c1 | inconclusive: 34.5%
CSc1cccc(NC(=S)N2CCCN(Cc3ccccc3F)C2)c1 | inconclusive: 39.4%
COc1ccc(C2OC(=O)CC2C(=O)NCc2ccc(F)cc2)cc1OC (stereo not given) | inconclusive: 52.2%
CN(C)c1cc[n+](CC(=O)Nc2cc(C(F)(F)F)ccc2Cl)cc1 | inconclusive: 53.6%
CCC(c1nnnn1C1CCCC1)N1CCN(c2ccccc2F)CC1 (stereo not given) | inconclusive: 12.8%
Cc1ccc(N2CCN(CCCN3C(=O)C4CCCN4C3=O)CC2)cc1 (stereo not given) | inconclusive: 50%
CC(=O)NC(=S)Nc1ccccc1C(=O)Nc1ccccc1 | inconclusive: 62.7%
O=C1CC(N2CCSCC2)C(=O)N1c1cccc(Cl)c1 (stereo not given) | inactive: 2.84%
COc1ccc(CNC(=O)N[C@H](C(=O)O)C(C)C)cc1OC | inconclusive: 47.7%
COc1ccccc1C1CCN(C(=O)c2ccccc2)CC1 | inactive: 6.08%
Nc1ncc(N=Nc2cc(C(=O)O)ccc2Cl)s1 | inconclusive: 45.6%
O=C(Nc1nc(-c2ccccc2)ns1)c1ccncc1 | inconclusive: 34.2%
CCOc1ccc(-n2cnc3c(=O)[nH]c(N)nc32)cc1 | inconclusive: 39.2%
COc1ccc(/C=C/C(=O)c2ccccc2)c(OC)c1 | inactive: 2.19%
CCCCNC(=O)c1cc(-c2ccc(F)cc2)on1 | inconclusive: 37.1%
Cc1ccc(C(=O)NC(=S)Nn2cnnc2)cc1 | inconclusive: 55.1%
CN1C(=O)C(=C2CCCCCC2)SC1=S | inactive: 4.5%
O=C(NCc1ccncc1)Nc1ccccc1 | inconclusive: 35.3%
CN(C)CCCNC(=O)C1CCNCC1 | inconclusive: 33.8%
CC(C)(CO)NCC#Cc1ccccc1 | inconclusive: 42.7%
